# Reference: the supplement of paper PMC11098740
# Counter-ions that a name gives are not always drawn. ± gives the standard deviation of the averaged measurements. Some of the results follow. Many values rest on one well or one pass, so single values are uncertain.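 The assay uses a mixed pool of 41 HAP1 clones in which 61 cancer-associated proteins bear intron-inserted fluorescent tags, and clones are distinguished by image pattern. Results are compared against DMSO-treated control wells, and the BRD4 degrader dBET6 is the positive control.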 Where a SMILES comes first, the peptide text is derived from it. Bridges are numbered along the chain shown (N, C = ends). [ ]: non-standard residue; d: D form. hArg = N=C(N)NCCCC[C@H](N)C(=O)O; Mpa = O=C(O)CCS
# Biological target: BRD4 (intron 10 mScarlet tag, HAP1) (UniProt O60885)
# Assay: BRD4 median nuclear fluorescence intensity change vs DMSO (log2 fold change); higher = more BRD4 protein
# Settings: 6 h
row,Compound,BRD4 median nuclear fluorescence intensity change (log2)
1,NC12CC3CC(CC(C3)C1)C2 [amantadine] (10 µM),0.00507
2,CCCCc1oc2ccc(NS(C)(=O)=O)cc2c1C(=O)c1ccc(OCCCN(CCCC)CCCC)cc1 [dronedarone] (10 µM),-0.0178
3,CCOC(=O)C1=C[C@@H](OC(CC)CC)[C@H](NC(C)=O)[C@@H](N)C1 [oseltamivir] (9.9999 µM),0.0345
4,CC1(C)CNc2cc(NC(=O)c3cccnc3NCc3ccncc3)ccc21 [motesanib] (10 µM),0.00859
5,O=C1Nc2ccc(Cl)cc2[C@@](C#CC2CC2)(C(F)(F)F)O1 [efavirenz] (10 µM),-0.0686
6,CC(=O)O[C@H]1CC[C@@]2(C)C(=CC[C@@H]3[C@@H]2CC[C@]2(C)C(c4cccnc4)=CC[C@@H]32)C1 [abiraterone acetate] (20 µM),0.0838
7,Nc1cccc2c1CN(C1CCC(=O)NC1=O)C2=O (centres undefined) [lenalidomide] (4.1665 µM),-0.0944
8,CCN(CC)C(=O)/C(C#N)=C/c1cc(O)c(O)c([N+](=O)[O-])c1 [entacapone] (10 µM),0.0329
9,C[C@H]1O[C@@H](O[C@H]2[C@@H](O)C[C@H](O[C@H]3[C@@H](O)C[C@H](O[C@H]4CC[C@@]5(C)[C@H](CC[C@@H]6[C@@H]5CC[C@]5(C)[C@@H](C7=CC(=O)OC7)CC[C@]65O)C4)O[C@@H]3C)O[C@@H]2C)C[C@H](O)[C@@H]1O [digitoxin] (10.0002 µM),-0.0189
10,CC(=O)O[C@]1(C(C)=O)CC[C@H]2[C@@H]3CCC4=CC(=O)CCC4=C3[C@@H](c3ccc(N(C)C)cc3)C[C@@]21C [ulipristal acetate] (9.99909 µM),0.0406
11,CC[C@]1(O)C[C@@H]2CN(CCc3c([nH]c4ccccc34)[C@@](C(=O)OC)(c3cc4c(cc3OC)N(C)[C@H]3[C@@](O)(C(=O)OC)[C@H](OC(C)=O)[C@]5(CC)C=CCN6CC[C@]43[C@@H]65)C2)C1 [vinblastine (sulfate)] (10 µM),0.118
12,O=C(O)C1(C(=O)O)CCC1.[NH2-].[NH2-].[Pt+2] [carboplatin] (20 µM),0.159
13,CCN(CC)C(=O)N1CCN(C)CC1 [diethylcarbamazine] (9.99954 µM),-0.0152
14,CC(C)NC(=N)NC(=N)Nc1ccc(Cl)cc1 [proguanil] (9.99926 µM),0.0234
15,CC(c1cc2ccccc2s1)N(O)C(N)=O (centres undefined) [zileuton] (10 µM),0.0541
16,CCCc1nc(C(C)(C)O)c(C(=O)O)n1Cc1ccc(-c2ccccc2-c2nnn[nH]2)cc1 [olmesartan] (10 µM),0.0242
17,CC(C)(C)C(=O)OCC(=O)[C@H]1CC[C@H]2[C@@H]3CCC4=CC(=O)CC[C@]4(C)[C@H]3CC[C@]12C [desoxycorticosterone pivalate] (10.0000892 µM),0.101
18,CCCCN(CCCC)CCC(O)c1cc2c(Cl)cc(Cl)cc2c2cc(C(F)(F)F)ccc12 (centres undefined) [halofantrine] (10 µM),0.0962
19,CC1CCc2c(sc3nc(CCl)nc(N)c23)C1 (centres undefined) (10 µM),-0.056
20,CC(C)C[C@H](NC(=O)CNC(=O)c1cc(Cl)ccc1Cl)B(O)O [ixazomib] (1 µM),-0.0767

# Structural class, the entries above containing a CF3 group
row,Compound,BRD4 median nuclear fluorescence intensity change (log2)
5,O=C1Nc2ccc(Cl)cc2[C@@](C#CC2CC2)(C(F)(F)F)O1 [efavirenz] (10 µM),-0.0686
18,CCCCN(CCCC)CCC(O)c1cc2c(Cl)cc(Cl)cc2c2cc(C(F)(F)F)ccc12 (centres undefined) [halofantrine] (10 µM),0.0962

# (more compounds)

row,Compound,BRD4 median nuclear fluorescence intensity change (log2)
1,COc1cc(C(=O)NCc2ccc(OCCN(C)C)cc2)cc(OC)c1OC [trimethobenzamide] (10 µM),0.084
2,O=C1c2c(O)ccc(O)c2C(=O)c2c(NCCNCCO)ccc(NCCNCCO)c21 [mitoxantrone] (0.1144 µM),-0.043
3,CCCCN1C[C@H](O)[C@@H](O)[C@H](O)[C@H]1CO [miglustat (hydrochloride)] (10 µM),0.0404
4,CC(C)[C@H]1CC[C@H](C(=O)N[C@H](Cc2ccccc2)C(=O)O)CC1 [nateglinide] (10 µM),0.0176
5,Cc1nc(Nc2ncc(C(=O)Nc3c(C)cccc3Cl)s2)cc(N2CCN(CCO)CC2)n1 [dasatinib] (0.0213961 µM),0.095
6,Cn1c(=O)c2nc[nH]c2n(C)c1=O [theophylline] (10 µM),-0.0499
7,CCCN1C(=O)C(=O)c2cc(Cl)ccc21 (10 µM),0.17
8,CC(C)C[C@H](NC(=O)[C@@H](Cc1c[nH]c2ccccc12)NC(=O)[C@H](Cc1ccc(O)cc1)NC(=O)[C@H](CO)NC(=O)[C@H](Cc1c[nH]c2ccccc12)NC(=O)[C@H](Cc1c[nH]cn1)NC(=O)[C@@H]1CCC(=O)N1)C(=O)N[C@@H](CCCNC(=N)N)C(=O)N1CCC[C@H]1C(=O)NCC(N)=O [triptorelin] (20 µM),-0.0134
9,CO[C@H]1/C=C/O[C@@]2(C)Oc3c(C)c(O)c4c(c3C2=O)C2=NC3(CCN(CC(C)C)CC3)NC2=C(NC(=O)/C(C)=C\C=C\[C@H](C)[C@H](O)[C@@H](C)[C@@H](O)[C@@H](C)[C@H](OC(C)=O)[C@@H]1C)C4=O [rifabutin] (9.99925 µM),0.144
10,COc1cc(C(=O)O)ccc1NC(=O)[C@@H]1N[C@@H](CC(C)(C)C)[C@](C#N)(c2ccc(Cl)cc2F)[C@H]1c1cccc(Cl)c1F [idasanutlin] (20 µM),0.05
11,N=C(N)NC(=O)Cc1c(Cl)cccc1Cl [guanfacine] (10 µM),-0.0644
12,Nc1nc(Cl)nc2c1ncn2[C@@H]1O[C@H](CO)[C@@H](O)[C@@H]1F [clofarabine] (0.1 µM),0.0294 ± 0.012
13,CC1(C)N=C(N)N=C(N)N1c1ccc(Cl)cc1 [cycloguanil] (11.4 µM),0.00241
14,OC[C@H]1O[C@@H](n2cnc3c2N=CNC[C@H]3O)C[C@@H]1O [pentostatin] (14.69 µM),0.0317
15,CCn1cc(C(=O)O)c(=O)c2cc(F)c(N3CCNCC3)nc21 [enoxacin] (10 µM),0.0954
16,CCN1CC(CCN2CCOCC2)C(c2ccccc2)(c2ccccc2)C1=O (centres undefined) [doxapram] (10 µM),0.057
17,CC/C(=C(\c1ccc(O)cc1)c1ccc(OCCNC)cc1)c1ccccc1 [endoxifen (hydrochloride)] (10 µM),0.119
18,CCOC(=O)c1ncn2c1CN(C)C(=O)c1cc(F)ccc1-2 [flumazenil] (10.00035031 µM),0.0449
19,N=C(N)NCCCC[C@@H]1NC(=O)CCSSC[C@@H](C(N)=O)NC(=O)[C@@H]2CCCN2C(=O)[C@H](Cc2c[nH]c3ccccc23)NC(=O)[C@H](CC(=O)O)NC(=O)CNC1=O [eptifibatide] (10.00039278 µM) ([Mpa][hArg]GDWPC-NH2; disulfide 1-7),-0.0474
